According to PubChem BioAssay AID256 (DTP/NCI, 2004):
The list does not hold the whole screen: it gathers tests that were run many times, whatever their T/C, doses with no T/C, and many T/C values between a quarter and a half above the control. Further doses and runs are listed elsewhere. T/C gives the treated animals as a percentage of the vehicle group. Some entries give survivors of the animals treated and no T/C: the source holds a T/C of zero for them, seemingly a mark for toxic or unscored doses. Some survivor counts are full or nearly so, which does not show that the dose was tolerated: the source hardly ever lists a survival T/C far under the control, and the zero likely stands for such cases as well. Counts of survivors are from the toxicity check (mostly the fifth day) where no day follows; animals may have died later. Schedule codes are those of the source, taken here to give the interval after Q, in days (D) or hours (H), and the number of doses after X. Some entries hold several experiments; their values stand side by side, smallest first. Some schedule codes hold Z or #, which are not explained here. For survival time, this PubChem deposit counts one and a half times the control or more as active, and values a quarter to a half above the control carry no call in these data; other NCI protocols may use other cut-offs. Some T/C values are followed by the survivors on the day toxicity was checked, most often the fifth; without a count, all were alive then.

Test system: CD2F1 mice, L1210 leukemia ip, survival T/C
Assay: NCI In Vivo Anticancer Drug Screen. Data for tumor model L1210 Leukemia (intraperitoneal) in CD2F1 (CDF1) mice
Conditions: higher T/C = longer survival
Procedure, shortened: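 Transplantable tumor in mice; compound-treated vs vehicle-treated groups. Read-out = treated/control ratio of the measured endpoint.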

[1] = T/C endpoint: mean survival time, dose: 400.0 mg/kg/injection, schedule: Q04DX003 (ip), vehicle: saline with Tween-80
[2] = T/C endpoint: mean survival time, dose: 100.0 mg/kg/injection, schedule: Q01DX009 (ip), vehicle: saline with Tween-80
[3] = T/C endpoint: mean survival time, dose: 100.0 mg/kg/injection, schedule: Q04DX003 (ip), vehicle: saline with Tween-80
[4] = T/C endpoint: mean survival time, dose: 200.0 mg/kg/injection, schedule: Q04DX003 (ip), vehicle: saline with Tween-80
[5] = T/C endpoint: mean survival time, dose: 100.0 mg/kg/injection, schedule: Q04DX002 (ip), vehicle: other
[6] = T/C endpoint: mean survival time, dose: 200.0 mg/kg/injection, schedule: Q04DX002 (ip), vehicle: other
[7] = T/C endpoint: mean survival time, dose: 400.0 mg/kg/injection, schedule: Q04DX002 (ip), vehicle: other
[8] = T/C endpoint: mean survival time, dose: 200.0 mg/kg/injection, schedule: Q01DX009 (ip), vehicle: saline with Tween-80
[9] = T/C endpoint: mean survival time, dose: 400.0 mg/kg/injection, schedule: Q01DX009 (ip), vehicle: saline with Tween-80
[10] = T/C endpoint: mean survival time, dose: 400.0 mg/kg/injection, schedule: Q01DX009 (ip), vehicle: saline
[11] = T/C endpoint: mean survival time, dose: 150.0 mg/kg/injection, schedule: Q01DX001 (ip), vehicle: saline
[12] = T/C endpoint: mean survival time, dose: 300.0 mg/kg/injection, schedule: Q01DX001 (ip), vehicle: saline
[13] = T/C endpoint: mean survival time, dose: 100.0 mg/kg/injection, schedule: Q04DX002 (ip), vehicle: saline with Tween-80
[14] = T/C endpoint: mean survival time, dose: 400.0 mg/kg/injection, schedule: Q04DX002 (ip), vehicle: saline with Tween-80

## O=C(O)/C=C/SCCC(=O)O
[1]
  survivor count: 0 of 6 and 2 of 6

## CC[N+](C)(CC)CCCOC(=O)c1ccccc1Oc1ccc(C)cc1
T/C endpoint: mean survival time, dose: 100.0 mg/kg/injection, schedule: Q01DX009 (ip), vehicle: saline
  survivor count: 0 of 6
T/C endpoint: mean survival time, dose: 200.0 mg/kg/injection, schedule: Q01DX009 (ip), vehicle: saline
  survivor count: 0 of 6

## OC(CC(CC(O)(C(F)(F)F)C(F)(F)F)=NNc1ccccc1)(C(F)(F)F)C(F)(F)F
[2]
  survivor count: 3 of 6

## CC(C)(C)N[P+](C)(NC(C)(C)C)c1ccccc1
T/C endpoint: mean survival time, dose: 25.0 mg/kg/injection, schedule: Q04DX003 (ip), vehicle: saline
  survivor count: 2 of 6
T/C endpoint: mean survival time, dose: 50.0 mg/kg/injection, schedule: Q04DX003 (ip), vehicle: saline
  survivor count: 0 of 6
[3]
  survivor count: 0 of 6
[4]
  survivor count: 0 of 6
[1]
  survivor count: 0 of 6

## C/C(=C/C(=O)O)C(=O)O.[NH-]C1CCCCC1[NH-].[Pt+2]
T/C endpoint: median survival time, dose: 100.0 mg/kg/injection, schedule: Q04DX003 (ip), vehicle: saline
  T/C: 132 and 133 % of control

## CC(CN=Cc1ccccc1[O-])N=Cc1ccccc1[O-].[O]=[V] (configuration not stated)
[3]
  survivor count: 0 of 6
[4]
  survivor count: 0 of 6
[1]
  survivor count: 0 of 6

## O=C1C=CC(=O)c2c(Cl)ccc(O)c21
T/C endpoint: mean survival time, dose: 25.0 mg/kg/injection, schedule: Q04DX002 (ip), vehicle: other
  survivor count: 0 of 3
T/C endpoint: mean survival time, dose: 50.0 mg/kg/injection, schedule: Q04DX002 (ip), vehicle: other
  survivor count: 0 of 3
[5]
  survivor count: 0 of 3
[6]
  survivor count: 0 of 3
[7]
  survivor count: 0 of 3

## O=Cc1ccc(O)c(O)c1
[8]
  T/C: 141 % of control
[9]
  T/C: 128 % of control
[10]
  T/C: 138 % of control [5 of 6 alive]
T/C endpoint: mean survival time, dose: 800.0 mg/kg/injection, schedule: Q01DX009 (ip), vehicle: saline with Tween-80
  survivor count: 1 of 6

## C[Si](C)(C)n1nnn(-c2ccccc2)c1=O
[9]
  survivor count: 3 of 6

## N\C([S-])=N/N=C\C(=N/N=C(\N)[S-])C(O)C(O)C(O)CO.[Ni+2] (configuration not stated)
T/C endpoint: mean survival time, dose: 322.0 mg/kg/injection, schedule: Q01DX009 (ip), vehicle: saline with Tween-80
  survivor count: 0 of 6

## CCN(CC)CCN1CC2CCCCC2C1 (configuration not stated)
[8]
  survivor count: 1 of 6
[9]
  survivor count: 0 of 6

## Nc1nc(N)nc(Nc2ccc(Sc3ccc(Nc4nc(N)nc(N)n4)cc3)cc2)n1
T/C endpoint: mean survival time, dose: 266.0 mg/kg/injection, schedule: Q01DX Z (ip), vehicle: saline
  survivor count: 3 of 6
T/C endpoint: mean survival time, dose: 400.0 mg/kg/injection, schedule: Q01DX Z (ip), vehicle: saline
  survivor count: 1 of 6
T/C endpoint: mean survival time, dose: 600.0 mg/kg/injection, schedule: Q01DX Z (ip), vehicle: saline
  survivor count: 2 of 6

## Cc1cc(=O)n(Cc2ccccc2)n1-c1ccccc1
[4]
  survivor count: 3 of 6
[1]
  survivor count: 2 of 6

## O=C1CCCC[CH]1[Hg][Cl] (configuration not stated)
T/C endpoint: mean survival time, dose: 5.0 mg/kg/injection, schedule: Q01DX009 (ip), vehicle: saline
  survivor count: 1 of 6

## CCCCOc1ccc(NC(=O)CCl)cc1
[2]
  survivor count: 1 of 6

## Oc1cccc2ccccc12
T/C endpoint: median survival time, dose: 800.0 mg/kg/injection, schedule: Q01DX005 (ip), vehicle: water
  survivor count: 0 of 6

## Cc1ccc(S(=O)(=O)OC2C(O)C(CO)OC2n2c(Br)c(C#N)c3c(N)ncnc32)cc1 (configuration not stated)
T/C endpoint: mean survival time, dose: 400.0 mg/kg/injection, schedule: Q01DX005 (ip), vehicle: saline with Tween-80
  survivor count: 2 of 4

## CC1(C)CC(=O)C=C(NCc2ccccc2)C1
[1]
  survivor count: 6 of 6

## O=S(=O)(F)c1ccc(C[P+](c2ccccc2)(c2ccccc2)c2ccccc2)c(Cl)c1
T/C endpoint: mean survival time, dose: 75.0 mg/kg/injection, schedule: Q01DX009 (ip), vehicle: saline
  survivor count: 3 of 6
[11]
  survivor count: 0 of 6
[12]
  survivor count: 0 of 6

## Oc1ccccc1Br
T/C endpoint: mean survival time, dose: 400.0 mg/kg/injection, schedule: Q01DX001 (ip), vehicle: saline
  survivor count: 0 of 3

## CCCCN=C=C(c1ccccc1)c1ccccc1
[5]
  survivor count: 1 of 3
[6]
  survivor count: 3 of 3
[7]
  survivor count: 1 of 3

## NC(CSC(c1ccccc1)(c1ccccc1)c1cccs1)C(=O)O (configuration not stated)
T/C endpoint: mean survival time, dose: 50.0 mg/kg/injection, schedule: Q01DX009 (ip), vehicle: saline
  survivor count: 6 of 6
[10]
  survivor count: 6 of 6

## COC(=O)CC1OCC=C2CN3CCC45C6=CC(=O)C(=O)C([N+](=O)[O-])=C6NC4C1C2CC35 (configuration not stated)
T/C endpoint: mean survival time, dose: 75.0 mg/kg/injection, schedule: Q01DX001 (ip), vehicle: saline
  survivor count: 0 of 6
[11]
  survivor count: 0 of 6
[12]
  survivor count: 0 of 6

## O=C(CNC(=O)Nc1cccc([N+](=O)[O-])c1)N/N=C/C=C/c1ccccc1
[2]
  survivor count: 3 of 3

## O=C(O)CCC(=O)c1ccc(Cl)c(Cl)c1
[8]
  survivor count: 6 of 6
[1]
  survivor count: 4 of 6

## CCC[CH2][Sn]1([CH2]CCC)[N](S(=O)(=O)c2ccc(C)cc2)c2ccccc2[N]1S(=O)(=O)c1ccc(C)cc1
T/C endpoint: mean survival time, dose: 12.5 mg/kg/injection, schedule: Q04DX002 (ip), vehicle: saline with Tween-80
  survivor count: 0 of 3
T/C endpoint: mean survival time, dose: 25.0 mg/kg/injection, schedule: Q04DX002 (ip), vehicle: saline with Tween-80
  survivor count: 1 of 3
T/C endpoint: mean survival time, dose: 50.0 mg/kg/injection, schedule: Q04DX002 (ip), vehicle: saline with Tween-80
  survivor count: 0 of 3
[13]
  survivor count: 0 of 3
T/C endpoint: mean survival time, dose: 200.0 mg/kg/injection, schedule: Q04DX002 (ip), vehicle: saline with Tween-80
  survivor count: 1 of 3
[14]
  survivor count: 1 of 3

## CC1(C(=O)c2ccccc2)CC2C=CC1C2 (configuration not stated)
[14]
  survivor count: 3 of 3

## CS(=O)(=O)OCCCN(CCCOS(C)(=O)=O)c1ccc(C=Nc2ccc(-c3csc(COc4ccc(Cl)cc4Cl)n3)cc2)cc1
[8]
  survivor count: 6 of 6
[9]
  survivor count: 6 of 6

## CCN(CC)Cc1cc(Nc2ncnc3[nH]c(C)c(C)c23)ccc1O
[13]
  survivor count: 3 of 3
T/C endpoint: mean survival time, dose: 400.0 mg/kg/injection, schedule: Q01DX001 (ip), vehicle: saline with Tween-80
  survivor count: 1 of 6
